Test results reported in US20180160679A1, “PROCESS FOR TREATING PERENNIAL PLANT WOOD DISEASES” (priority 2015, published 2018).
Some of these results come from one statement about several compounds together.

System: Diplodia seriata (F98-01)
Assay: Germination of the spores on malt-agar medium with fungicide
Type: cell-based
Protocol: Formulation 3 was used in this experiment and was compared with two formulations 5 and 6, devoid of one of the two active ingredients but of identical composition (the quantity of active ingredient omitted is replaced with water).
The fungi on which formulations 3, 5 and 6 were tested are Phaemoniella chlamydospora (81pep), Phaeoacremonium aleophilum (LR 23), Diplodia seriata (F98-01), Neofusicoccum parvum (NpSV) and Eutypa lata.
The fungi are transferred to a malt-agar medium (15 g of malt and 20 g of agar per litre of deionized water, sterilized at 120° C. for 20 minutes) in a Petri dish for multiplication.
The conidia of Diplodia seriata are obtained from pycnidia that have developed in less than three weeks of culture on the malt-agar medium. The pycnidia are taken from and cultured in sterile water in such a way that they release the conidia.
The culture medium is a malt-agar medium (15 g of malt and 20 g of agar per litre of deionized water, sterilized at 120° C. for 20 minutes). […]
The percentage germination of the spores is evaluated relative to a control placed under the same conditions. […]
For each Petri dish, 200 spores are counted and the percentage of spores germinated is calculated.
For each concentration of fungicide, the percentage efficacy of the active ingredient is determined by the following equation: […]

With `CC(C)(C)C(O)(CCc1ccc(Cl)cc1)Cn1cncn1` (stereo not shown) [tebuconazole] the “concentration from which germination of the spores is inhibited completely” value was no less than 0.5 mg/L.
